Test results as given in article PMC10038992.

Target: T1, SBP-HA-CBP-KCTD7 (human KCTD7 fused to streptavidin- and calmodulin-binding peptides separated by an HA tag) (human) (UniProt Q96MP8)
T1 sequence: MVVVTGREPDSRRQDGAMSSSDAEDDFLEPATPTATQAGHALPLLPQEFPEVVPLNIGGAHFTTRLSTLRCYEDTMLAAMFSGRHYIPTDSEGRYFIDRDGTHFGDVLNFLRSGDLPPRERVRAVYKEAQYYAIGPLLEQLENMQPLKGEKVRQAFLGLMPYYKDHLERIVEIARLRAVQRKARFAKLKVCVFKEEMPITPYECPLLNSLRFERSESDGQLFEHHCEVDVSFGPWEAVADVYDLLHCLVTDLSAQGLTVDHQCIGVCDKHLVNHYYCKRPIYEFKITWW
Assay: affinity purification with mass spectrometry; tandem affinity purification (streptavidin resin, biotin elution, then calmodulin resin) of SBP-HA-CBP-KCTD7 from stable HEK293 cells; lysis in 10% glycerol, 50 mM HEPES-KOH pH 8.0, 100 mM KCl, 2 mM EDTA, 0.1% NP-40, 2 mM DTT; on-bead trypsin digest, nanoLC-MS/MS

B1: CAPNS1 (regulatory subunit of m-calpain and μ-calpain; endogenous, HEK293) (protein, UniProt P04632 1-268)
chain: MFLVNSFLKGGGGGGGGGGGLGGGLGNVLGGLISGAGGGGGGGGGGGGGGGGGGGGTAMRILGGVISAISEAAAQYNPEPPPPRTHYSNIEANESEEVRQFRRLFAQLAGDDMEVSATELMNILNKVVTRHPDLKTDGFGIDTCRSMVAVMDSDTTGKLGFEEFKYLWNNIKRWQAIYKQFDTDRSGTICSSELPGAFEAAGFHLNEHLYNMIIRRYSDESGNMDFDNFISCLVRLDAMFRAFKSLDKDGTGQIQVNIQEWLQLTMYS
binding: binds

No constants are given. Whether binding was seen depends on the method and setting. In cells and extracts the contact can be indirect. These calls come from enrichment with a bait or labelling near it, and not all partners need be listed. Where a sequence is shown, tags or fusion partners need not be part of it.
